The campaign covered roughly 190,000 compounds. About 110 (0.058%) were called active. Listed are the inconclusive results; actives and inactives stand elsewhere.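 How the source made its calls: active means fluorescent GTP binding to Rab7 beads changed by at least 20 points from the 100% baseline, either direction, mostly lower; inconclusive means compound itself probably fluorescent, or too few beads counted; inactive means the rest.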
Each molecule was assayed on Rab7 GTPase wild type (dog), Bodipy-FL-GTP binding (assay: wildtype dog Rab7 nucleotide binding alteration – biochemical, multiplex bead flow cytometry, primary screen (AID 758;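 further: median green fluorescence of bound Bodipy-FL-GTP per Rab7 bead population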)). Settings: GST-Rab7 beads, fluorescent GTP binding, at 10 µM, actives lie on both sides, untreated = 100%, excess cold GTP = 0%.

Structure (SMILES) | GTP binding activity (percent of control)
CC(C)c1ccc(OP(C)(=O)Nc2ccc(SC(F)(F)F)cc2)cc1 (stereo unspecified) | inconclusive: 97%

Reference: PubChem BioAssay AID758 (NMMLSC, 2007)
